Experimental data from the supplement of paper PMC10849652.
Some of the results follow. Residues, ends and D or L forms follow the SMILES beside them. *: point of attachment. Cbz = O=C(OCc1ccccc1)*

Protein sequences, listed by entry. Tags and fused reporters are not part of them. Lines headed by an entry give the natural chain unless they say otherwise; changes in a name come on top.
UniProt Q9HA64: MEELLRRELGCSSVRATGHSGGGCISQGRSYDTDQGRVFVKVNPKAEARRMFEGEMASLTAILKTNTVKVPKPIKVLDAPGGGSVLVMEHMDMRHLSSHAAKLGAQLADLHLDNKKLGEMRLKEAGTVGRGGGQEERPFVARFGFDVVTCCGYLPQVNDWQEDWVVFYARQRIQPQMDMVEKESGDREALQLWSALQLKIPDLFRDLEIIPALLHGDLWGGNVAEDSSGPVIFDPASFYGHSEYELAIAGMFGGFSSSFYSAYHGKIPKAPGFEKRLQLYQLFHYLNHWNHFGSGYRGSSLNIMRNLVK
UniProt Q8TB52: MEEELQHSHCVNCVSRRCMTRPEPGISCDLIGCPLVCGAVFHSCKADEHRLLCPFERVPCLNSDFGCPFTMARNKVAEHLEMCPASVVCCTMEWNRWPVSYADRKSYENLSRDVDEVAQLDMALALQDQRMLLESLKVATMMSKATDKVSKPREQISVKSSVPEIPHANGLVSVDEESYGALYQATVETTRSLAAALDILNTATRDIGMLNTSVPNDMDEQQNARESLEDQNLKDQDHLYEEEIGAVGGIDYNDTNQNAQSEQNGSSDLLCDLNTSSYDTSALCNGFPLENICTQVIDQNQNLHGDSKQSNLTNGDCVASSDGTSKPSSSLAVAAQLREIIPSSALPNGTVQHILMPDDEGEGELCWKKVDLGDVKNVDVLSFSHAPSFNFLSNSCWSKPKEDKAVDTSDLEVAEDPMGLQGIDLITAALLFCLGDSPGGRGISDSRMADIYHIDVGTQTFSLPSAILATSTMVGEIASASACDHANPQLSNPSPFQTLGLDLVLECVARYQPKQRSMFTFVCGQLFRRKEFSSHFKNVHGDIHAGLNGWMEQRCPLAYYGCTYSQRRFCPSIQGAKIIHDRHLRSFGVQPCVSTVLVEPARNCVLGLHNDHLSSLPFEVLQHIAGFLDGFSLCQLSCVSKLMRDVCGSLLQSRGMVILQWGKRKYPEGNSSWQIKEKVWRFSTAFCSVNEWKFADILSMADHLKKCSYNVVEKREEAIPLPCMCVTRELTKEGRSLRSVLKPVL
UniProt Q14254: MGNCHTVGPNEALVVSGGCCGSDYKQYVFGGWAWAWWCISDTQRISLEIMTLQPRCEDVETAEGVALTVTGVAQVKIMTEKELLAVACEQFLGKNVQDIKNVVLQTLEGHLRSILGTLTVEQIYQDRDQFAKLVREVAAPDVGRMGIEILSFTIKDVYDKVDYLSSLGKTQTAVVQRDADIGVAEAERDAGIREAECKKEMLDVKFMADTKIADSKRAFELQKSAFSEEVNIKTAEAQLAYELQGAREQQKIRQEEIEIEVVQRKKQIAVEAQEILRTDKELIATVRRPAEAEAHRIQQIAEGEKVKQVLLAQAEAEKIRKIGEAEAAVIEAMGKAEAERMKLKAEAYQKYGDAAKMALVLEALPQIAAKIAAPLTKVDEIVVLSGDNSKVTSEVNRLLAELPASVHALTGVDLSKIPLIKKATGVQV
UniProt Q9NUQ9: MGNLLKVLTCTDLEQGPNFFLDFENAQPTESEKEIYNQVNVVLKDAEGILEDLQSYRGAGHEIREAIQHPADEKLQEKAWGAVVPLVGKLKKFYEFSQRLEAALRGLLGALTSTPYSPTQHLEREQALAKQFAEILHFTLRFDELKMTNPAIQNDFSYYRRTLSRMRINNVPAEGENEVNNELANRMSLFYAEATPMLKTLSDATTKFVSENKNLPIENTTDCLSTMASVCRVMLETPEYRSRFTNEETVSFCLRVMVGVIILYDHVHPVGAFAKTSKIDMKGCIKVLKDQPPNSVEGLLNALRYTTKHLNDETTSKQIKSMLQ
UniProt Q52LJ0: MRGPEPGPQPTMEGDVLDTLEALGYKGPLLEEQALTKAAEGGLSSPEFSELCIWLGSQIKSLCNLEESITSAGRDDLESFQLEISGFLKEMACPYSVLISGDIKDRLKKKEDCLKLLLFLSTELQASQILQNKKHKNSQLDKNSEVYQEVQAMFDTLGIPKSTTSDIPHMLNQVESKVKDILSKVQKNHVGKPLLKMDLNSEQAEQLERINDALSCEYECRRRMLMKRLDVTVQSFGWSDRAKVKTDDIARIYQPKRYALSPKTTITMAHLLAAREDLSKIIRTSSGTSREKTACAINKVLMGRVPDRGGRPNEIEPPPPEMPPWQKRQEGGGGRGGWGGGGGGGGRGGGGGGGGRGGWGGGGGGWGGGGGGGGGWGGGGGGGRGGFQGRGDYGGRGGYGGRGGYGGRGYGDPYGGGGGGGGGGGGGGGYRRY
UniProt Q6P3S6: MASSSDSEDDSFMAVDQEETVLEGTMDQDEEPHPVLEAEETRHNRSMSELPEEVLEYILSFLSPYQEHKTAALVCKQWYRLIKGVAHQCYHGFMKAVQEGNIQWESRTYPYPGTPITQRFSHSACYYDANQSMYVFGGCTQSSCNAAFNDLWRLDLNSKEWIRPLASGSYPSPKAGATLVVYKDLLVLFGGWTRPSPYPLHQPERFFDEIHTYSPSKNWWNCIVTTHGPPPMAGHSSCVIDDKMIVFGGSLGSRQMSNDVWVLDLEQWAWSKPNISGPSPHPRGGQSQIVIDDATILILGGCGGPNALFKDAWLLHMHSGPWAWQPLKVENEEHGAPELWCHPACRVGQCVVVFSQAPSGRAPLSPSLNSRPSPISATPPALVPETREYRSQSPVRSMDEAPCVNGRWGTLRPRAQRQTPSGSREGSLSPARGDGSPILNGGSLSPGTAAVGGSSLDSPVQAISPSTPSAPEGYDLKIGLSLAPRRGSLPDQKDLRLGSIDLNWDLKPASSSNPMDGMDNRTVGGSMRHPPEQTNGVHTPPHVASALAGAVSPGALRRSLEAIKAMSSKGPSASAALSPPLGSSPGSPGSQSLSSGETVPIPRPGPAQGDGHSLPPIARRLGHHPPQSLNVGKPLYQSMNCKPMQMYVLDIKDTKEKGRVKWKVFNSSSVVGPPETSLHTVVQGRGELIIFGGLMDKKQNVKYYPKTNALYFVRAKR
UniProt Q5JUQ0: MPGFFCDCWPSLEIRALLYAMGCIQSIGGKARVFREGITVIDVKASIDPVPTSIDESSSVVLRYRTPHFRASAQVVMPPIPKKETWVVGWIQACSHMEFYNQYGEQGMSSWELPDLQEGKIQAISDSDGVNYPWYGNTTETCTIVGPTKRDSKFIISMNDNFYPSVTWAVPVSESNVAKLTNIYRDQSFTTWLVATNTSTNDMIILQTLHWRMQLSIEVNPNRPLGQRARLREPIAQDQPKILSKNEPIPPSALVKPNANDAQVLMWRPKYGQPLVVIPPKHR
UniProt B1AJZ9: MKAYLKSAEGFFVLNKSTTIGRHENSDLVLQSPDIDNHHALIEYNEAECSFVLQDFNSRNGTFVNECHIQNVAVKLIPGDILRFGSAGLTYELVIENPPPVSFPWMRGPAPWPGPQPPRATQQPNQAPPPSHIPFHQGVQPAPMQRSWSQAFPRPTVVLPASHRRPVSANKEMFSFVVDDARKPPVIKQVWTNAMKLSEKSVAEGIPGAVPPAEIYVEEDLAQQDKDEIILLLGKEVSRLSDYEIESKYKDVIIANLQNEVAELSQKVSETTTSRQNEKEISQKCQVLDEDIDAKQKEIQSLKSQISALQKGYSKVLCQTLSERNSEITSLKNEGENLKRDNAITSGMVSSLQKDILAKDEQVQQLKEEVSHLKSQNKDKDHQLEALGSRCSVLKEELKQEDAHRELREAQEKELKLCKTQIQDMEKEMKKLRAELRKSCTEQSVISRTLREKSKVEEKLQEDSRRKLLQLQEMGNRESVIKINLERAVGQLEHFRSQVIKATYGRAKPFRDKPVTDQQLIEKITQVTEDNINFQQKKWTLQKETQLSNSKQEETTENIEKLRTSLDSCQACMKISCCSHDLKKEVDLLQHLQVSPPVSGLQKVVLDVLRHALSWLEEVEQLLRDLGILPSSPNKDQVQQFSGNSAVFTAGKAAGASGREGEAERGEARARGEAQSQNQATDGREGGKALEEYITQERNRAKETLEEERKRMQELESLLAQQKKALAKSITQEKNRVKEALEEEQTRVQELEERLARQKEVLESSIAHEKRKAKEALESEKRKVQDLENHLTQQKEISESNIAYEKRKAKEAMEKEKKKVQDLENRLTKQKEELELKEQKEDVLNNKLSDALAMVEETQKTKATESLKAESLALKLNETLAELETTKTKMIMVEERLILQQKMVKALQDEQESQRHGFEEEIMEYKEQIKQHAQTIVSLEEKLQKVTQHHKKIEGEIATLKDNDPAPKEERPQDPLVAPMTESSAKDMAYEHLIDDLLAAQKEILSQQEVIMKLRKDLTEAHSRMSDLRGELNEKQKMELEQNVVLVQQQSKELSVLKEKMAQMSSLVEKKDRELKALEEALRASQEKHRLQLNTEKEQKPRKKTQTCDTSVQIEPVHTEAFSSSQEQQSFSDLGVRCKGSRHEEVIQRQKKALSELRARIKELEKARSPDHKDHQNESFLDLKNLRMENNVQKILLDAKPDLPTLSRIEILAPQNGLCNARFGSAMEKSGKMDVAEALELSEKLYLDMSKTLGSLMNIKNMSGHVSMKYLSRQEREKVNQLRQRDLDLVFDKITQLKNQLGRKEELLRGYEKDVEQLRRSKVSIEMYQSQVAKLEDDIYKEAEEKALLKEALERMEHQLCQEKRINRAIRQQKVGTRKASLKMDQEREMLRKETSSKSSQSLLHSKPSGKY
UniProt P14324: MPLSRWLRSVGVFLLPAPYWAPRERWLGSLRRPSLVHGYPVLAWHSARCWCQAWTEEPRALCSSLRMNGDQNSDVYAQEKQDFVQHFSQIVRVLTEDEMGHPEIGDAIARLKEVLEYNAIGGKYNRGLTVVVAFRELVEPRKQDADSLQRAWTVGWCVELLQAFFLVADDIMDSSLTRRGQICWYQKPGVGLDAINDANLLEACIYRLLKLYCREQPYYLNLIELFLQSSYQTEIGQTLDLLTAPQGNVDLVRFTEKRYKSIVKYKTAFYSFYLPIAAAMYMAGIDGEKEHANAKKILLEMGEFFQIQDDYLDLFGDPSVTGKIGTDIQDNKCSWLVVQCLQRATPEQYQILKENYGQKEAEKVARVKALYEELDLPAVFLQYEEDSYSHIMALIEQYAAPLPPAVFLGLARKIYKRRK
UniProt Q9UK97: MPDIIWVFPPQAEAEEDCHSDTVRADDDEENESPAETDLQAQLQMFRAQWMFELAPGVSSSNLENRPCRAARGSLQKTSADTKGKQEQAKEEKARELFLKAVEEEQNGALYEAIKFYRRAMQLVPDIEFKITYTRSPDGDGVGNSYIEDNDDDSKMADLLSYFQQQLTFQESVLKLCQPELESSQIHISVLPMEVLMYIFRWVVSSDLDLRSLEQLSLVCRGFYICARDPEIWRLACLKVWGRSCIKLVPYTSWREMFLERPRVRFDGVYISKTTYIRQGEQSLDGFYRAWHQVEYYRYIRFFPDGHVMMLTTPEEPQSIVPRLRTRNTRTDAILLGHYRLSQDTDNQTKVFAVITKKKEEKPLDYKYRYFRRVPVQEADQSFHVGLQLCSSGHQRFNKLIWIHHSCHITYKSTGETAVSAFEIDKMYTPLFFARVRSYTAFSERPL
UniProt Q8N8J7: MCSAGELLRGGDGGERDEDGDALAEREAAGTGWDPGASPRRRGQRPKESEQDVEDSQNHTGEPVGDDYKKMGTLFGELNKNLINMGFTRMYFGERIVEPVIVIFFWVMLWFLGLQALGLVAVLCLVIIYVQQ
UniProt Q658Y4: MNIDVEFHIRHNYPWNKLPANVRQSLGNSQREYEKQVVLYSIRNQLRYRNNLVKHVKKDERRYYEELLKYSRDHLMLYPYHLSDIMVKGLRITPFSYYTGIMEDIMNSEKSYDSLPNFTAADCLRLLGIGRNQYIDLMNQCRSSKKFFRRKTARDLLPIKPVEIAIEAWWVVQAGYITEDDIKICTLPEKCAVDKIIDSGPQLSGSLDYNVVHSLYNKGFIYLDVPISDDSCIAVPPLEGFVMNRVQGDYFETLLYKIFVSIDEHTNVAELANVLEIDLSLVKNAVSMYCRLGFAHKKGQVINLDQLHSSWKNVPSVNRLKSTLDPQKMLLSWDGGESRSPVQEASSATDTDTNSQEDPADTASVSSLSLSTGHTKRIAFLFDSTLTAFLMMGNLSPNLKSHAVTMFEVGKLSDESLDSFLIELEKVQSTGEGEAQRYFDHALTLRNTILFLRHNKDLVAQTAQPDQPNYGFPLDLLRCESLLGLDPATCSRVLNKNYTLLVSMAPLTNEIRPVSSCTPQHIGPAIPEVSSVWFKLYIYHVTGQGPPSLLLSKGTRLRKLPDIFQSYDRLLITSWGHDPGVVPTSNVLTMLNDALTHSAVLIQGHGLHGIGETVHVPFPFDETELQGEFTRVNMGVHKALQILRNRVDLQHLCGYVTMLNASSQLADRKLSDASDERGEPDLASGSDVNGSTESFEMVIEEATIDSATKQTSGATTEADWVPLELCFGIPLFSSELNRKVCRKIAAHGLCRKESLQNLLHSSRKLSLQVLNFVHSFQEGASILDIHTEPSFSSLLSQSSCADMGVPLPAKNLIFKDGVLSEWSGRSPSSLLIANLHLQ

Key:
Assay in all cases: log2 fold change, soluble protein after heating vs DMSO (PISA); higher = thermal stabilisation; K562 cells, 10 uM, 30 min; active = over 0.2 and 3.5 SD of the protein, either way, in both replicates (recomputed)
[1] = compound: C1COCCN1CCN2C3=CC=CC=C3N=C2NC(=O)C4=CC(=CC=C4)[N+](=O)[O-] [IRAK-1-4 Inhibitor I]
Outline: (§1)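 Aliquots of K562 cells (2×10^6 cells/mL) treated with 10 μM compound for 30 min were heated for 3 min over 48°C-58°C. After pooling and extraction in PBS with 0.5% NP-40 at 4°C, soluble protein from a 21,000xg, 90 min spin was quantified by TMTpro 16plex LC-MS/MS with channel sums equalised. Thermal stability is expressed against control samples, from duplicates, as a log2 fold change.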

[2] = compound: C=CC(=O)N1CCC[C@@H](n2nc(-c3ccc(Oc4ccccc4)cc3)c3c(N)ncnc32)C1 [ibrutinib]
Outline: as §1

[3] = compound: CC(=O)c1cnc2ccc(-c3cc(Cl)c(O)c(Cl)c3)nc2c1N[C@H]1CC[C@H](CN(C)C)CC1
Outline: as §1

[4] = compound: CC(C)(C)Cn1c(N)nc2ccc(-c3[nH]c(C(C)(C)C)nc3-c3ccc(F)cc3)nc21 [ralimetinib]
Outline: as §1

[5] = compound: CC(C)(O)CC(=O)NCCn1ccc2ncnc(Nc3ccc(Oc4cccc(C(F)(F)F)c4)c(Cl)c3)c21
Outline: as §1

[6] = compound: CC(C)C1=C2N=C(C=C(N2N=C1)NCC3=CC=CC=C3)NCCCCCCN
Outline: as §1

[7] = compound: CC(C)C[C@@H](C=O)NC(=O)[C@H](CC(C)C)NC(=O)[C@H](CC(C)C)NC(=O)OCc1ccccc1
Outline: as §1

[8] = compound: CC(C)N(C[C@H]1O[C@@H](n2cnc3c(N)ncnc32)[C@H](O)[C@@H]1O)[C@H]1C[C@@H](CCc2nc3cc(C(C)(C)C)ccc3[nH]2)C1 [pinometostat]
Outline: as §1

[9] = compound: CC1=C(C(CC(=O)N1)C2=CC=C(C=C2)C(F)(F)F)C(=O)NC3=C(C=C4C(=C3)C=NN4)F
Outline: as §1

[10] = compound: CC1=C(C2=C(C=C1)C(=O)C3=CC=CC=C3N2CCCN)C
Outline: as §1

[11] = compound: CC1=C(C=C(C=C1)NC(=O)C2=CC(=CC=C2)C(C)(C)C#N)NC3=CC4=C(C=C3)N=CN(C4=O)C
Outline: as §1

[12] = compound: CC1=C(C=C(C=C1)NC(=O)C2=CC(=CC=C2)N(C)C)NC(=O)C3=CC=C(C=C3)O
Outline: as §1

[13] = compound: CC1=CC=C(C=C1)SC2=C3C=C(SC3=CN=C2)C(=O)N
Outline: as §1

[14] = compound: CC1=NC(=CC=C1)C2=C(N=C(N2)C(C)(C)C)C3=CC4=NC=CN=C4C=C3
Outline: as §1

[15] = compound: CCCCN(Cc1ccc(C(=O)NO)cc1)C(=O)Nc1ccccc1 [Nexturastat A]
Outline: as §1

[16] = compound: CCCS(=O)(=O)Nc1ccc(F)c(C(=O)c2c[nH]c3ncc(-c4ccc(Cl)cc4)cc23)c1F [vemurafenib]
Outline: as §1

[17] = compound: CCCS(=O)(=O)Nc1ccc(F)c(C(=O)c2c[nH]c3ncc(Cl)cc23)c1F
Outline: as §1

[18] = compound: CCCc1cc(C)[nH]c(=O)c1CNC(=O)c1cc(-c2ccnc(N3CCN(C)CC3)c2)cc2c1cnn2C(C)C
Outline: as §1

[19] = compound: CCN(CC)Cc1ccc2cc(COC(=O)Nc3ccc(C(=O)NO)cc3)ccc2c1 [givinostat]
Outline: as §1

[20] = compound: CCN(CCCOc1ccc2c(Nc3cc(CC(=O)Nc4cccc(F)c4)[nH]n3)ncnc2c1)CCOP(=O)(O)O [barasertib]
Outline: as §1

| Target | log2 fold change [1] | log2 fold change [2] | log2 fold change [3] | log2 fold change [4] | log2 fold change [5] | log2 fold change [6] | log2 fold change [7] | log2 fold change [8] | log2 fold change [9] | log2 fold change [10] | log2 fold change [11] | log2 fold change [12] | log2 fold change [13] | log2 fold change [14] | log2 fold change [15] | log2 fold change [16] | log2 fold change [17] | log2 fold change [18] | log2 fold change [19] | log2 fold change [20] |
| --- | --- | --- | --- | --- | --- | --- | --- | --- | --- | --- | --- | --- | --- | --- | --- | --- | --- | --- | --- | --- |
| FKBP8 isoform 2 (UniProt Q14318) | inactive: -0.15 | inactive: -0.004 | inactive: 0.045 | inactive: 0.239 | inactive: 0 | inactive: -0.129 | inactive: 0.029 | inactive: 0.251 | inactive: 0.104 | inactive: 0.034 | inactive: 0.057 | inactive: -0.022 | inactive: 0.05 | inactive: -0.038 | inactive: 0.205 | inactive: 0.009 | inactive: 0.054 | inactive: 0.105 | inactive: 0.117 | inactive: 0.086 |
| FANCD2 isoform 1 (UniProt Q9BXW9) | inactive: -0.002 | inactive: 0.025 | inactive: -0.155 | inactive: -0.082 | inactive: -0.029 | active: -0.354 | inactive: -0.266 | inactive: 0.062 | – | active: -0.369 | inactive: 0.003 | inactive: -0.007 | inactive: 0.027 | inactive: -0.035 | inactive: -0.09 | inactive: 0.033 | inactive: 0.099 | inactive: -0.031 | inactive: 0.017 | inactive: 0.043 |
| FN3KRP (UniProt Q9HA64) | inactive: 0.053 | inactive: 0.015 | inactive: 0.032 | inactive: -0.039 | inactive: -0.008 | inactive: 0.077 | inactive: -0.01 | inactive: -0.083 | inactive: 0.03 | inactive: -0.019 | inactive: -0.016 | inactive: 0.013 | inactive: -0.006 | inactive: -0.013 | inactive: -0.015 | inactive: 0.021 | inactive: -0.005 | inactive: 0.089 | inactive: -0.026 | inactive: 0.018 |
| FANCI (UniProt Q9NVI1) | inactive: -0.043 | inactive: -0.082 | inactive: -0.148 | inactive: -0.008 | inactive: -0.146 | active: -0.377 | inactive: -0.136 | inactive: 0.006 | – | inactive: -0.098 | inactive: 0.012 | inactive: 0.018 | inactive: 0.01 | inactive: 0.046 | inactive: -0.054 | inactive: 0.016 | inactive: 0.087 | inactive: 0.009 | inactive: 0.043 | inactive: 0.029 |
| FBXO30 (UniProt Q8TB52) | inactive: 0.014 | inactive: 0.025 | inactive: -0.041 | inactive: 0.013 | inactive: -0.111 | inactive: -0.069 | inactive: -0.026 | inactive: 0.029 | inactive: -0.039 | inactive: 0.052 | inactive: 0.007 | inactive: -0.055 | inactive: -0.029 | inactive: 0.055 | inactive: -0.146 | inactive: 0.001 | inactive: 0.075 | inactive: -0.044 | inactive: -0.005 | inactive: 0.026 |
| FLOT2 (UniProt Q14254) | inactive: -0.152 | inactive: -0.118 | inactive: 0.008 | inactive: 0.126 | inactive: 0.076 | inactive: -0.086 | inactive: 0.073 | inactive: 0.119 | inactive: 0.027 | inactive: 0.011 | inactive: -0.031 | inactive: -0.12 | inactive: -0.047 | inactive: -0.08 | inactive: 0.324 | inactive: 0.02 | inactive: -0.057 | inactive: 0.159 | inactive: 0.059 | inactive: 0.047 |
| FAM49B (UniProt Q9NUQ9) | inactive: 0.036 | inactive: -0.012 | inactive: -0.022 | inactive: -0.043 | inactive: -0.051 | inactive: 0.004 | inactive: -0.019 | inactive: -0.045 | inactive: -0.001 | inactive: 0.032 | inactive: 0.008 | inactive: 0.015 | inactive: 0.002 | inactive: 0.061 | inactive: -0.115 | inactive: 0.011 | inactive: 0.033 | inactive: -0.075 | inactive: 0.003 | inactive: -0.001 |
| FLNC (UniProt Q14315) | inactive: 0.005 | inactive: -0.01 | inactive: 0.036 | inactive: 0.006 | inactive: 0.001 | inactive: -0.003 | inactive: -0.004 | inactive: -0.003 | inactive: -0.008 | inactive: 0.009 | inactive: 0.016 | inactive: -0.028 | inactive: -0.004 | inactive: -0.001 | inactive: -0.035 | inactive: 0.008 | inactive: 0.02 | inactive: -0.011 | inactive: 0.002 | inactive: 0.012 |
| FAM98B (UniProt Q52LJ0) | inactive: 0.013 | inactive: -0.033 | inactive: 0.012 | inactive: 0.043 | inactive: 0.018 | inactive: -0.102 | inactive: 0.049 | inactive: 0.156 | inactive: -0.064 | inactive: 0.088 | inactive: 0.062 | inactive: -0.085 | inactive: 0.05 | inactive: -0.018 | inactive: 0.022 | inactive: -0.014 | inactive: 0.065 | inactive: 0.013 | inactive: 0.041 | inactive: -0.013 |
| FKBP4 (UniProt Q02790) | inactive: 0 | inactive: -0.005 | inactive: -0.006 | inactive: -0.016 | inactive: -0.036 | inactive: -0.094 | inactive: 0.002 | inactive: -0.032 | – | inactive: 0.013 | inactive: 0.032 | inactive: -0.037 | inactive: 0.015 | inactive: 0.045 | inactive: -0.027 | inactive: 0.032 | inactive: 0.06 | inactive: -0.009 | inactive: 0.012 | inactive: 0.013 |
| FBXO42 (UniProt Q6P3S6) | inactive: -0.103 | inactive: -0.009 | inactive: -0.108 | inactive: -0.064 | inactive: -0.093 | inactive: -0.169 | inactive: 0.011 | inactive: -0.051 | – | inactive: 0.086 | inactive: -0.033 | inactive: 0.164 | inactive: -0.038 | inactive: 0.04 | inactive: -0.072 | inactive: -0.086 | inactive: 0.083 | inactive: -0.025 | inactive: 0.09 | inactive: 0.015 |
| FAM78A (UniProt Q5JUQ0) | inactive: -0.039 | inactive: 0.004 | inactive: -0.064 | inactive: -0.095 | inactive: -0.135 | inactive: -0.19 | inactive: 0.064 | inactive: 0.167 | inactive: -0.025 | inactive: 0.007 | inactive: 0.008 | inactive: -0.053 | inactive: 0.002 | inactive: -0.093 | inactive: 0.043 | inactive: -0.069 | inactive: -0.063 | – | inactive: 0.065 | inactive: 0.042 |
| FHAD1 isoform 3 (UniProt B1AJZ9) | inactive: 0.092 | inactive: 0.266 | inactive: -0.092 | inactive: 0.069 | – | – | inactive: -0.029 | inactive: -0.147 | – | inactive: -0.138 | – | inactive: 0.014 | inactive: 0.185 | inactive: 0.193 | – | inactive: 0.023 | inactive: -0.264 | – | – | inactive: -0.015 |
| FDPS (UniProt P14324) | inactive: -0.127 | inactive: -0.066 | inactive: -0.096 | inactive: 0.048 | inactive: -0.319 | active: -0.63 | inactive: -0.028 | inactive: 0.048 | – | inactive: 0.083 | inactive: -0.061 | inactive: -0.068 | inactive: 0.109 | inactive: -0.077 | inactive: 0.068 | inactive: 0.034 | inactive: -0.001 | inactive: -0.005 | inactive: 0.156 | inactive: 0.081 |
| FBXO9 (UniProt Q9UK97) | inactive: -0.034 | inactive: -0.119 | – | inactive: 0.137 | – | inactive: -0.101 | inactive: 0.088 | inactive: 0.038 | – | inactive: 0.137 | – | inactive: 0.009 | inactive: 0.064 | inactive: -0.025 | – | inactive: 0 | inactive: 0.061 | inactive: 0.052 | inactive: 0.111 | inactive: 0.117 |
| FAM241A (UniProt Q8N8J7) | inactive: 0.011 | inactive: -0.094 | inactive: 0.063 | inactive: -0.019 | – | inactive: -0.008 | inactive: 0.004 | inactive: -0.029 | – | inactive: -0.008 | active: 0.536 | inactive: -0.012 | inactive: -0.031 | inactive: -0.028 | – | inactive: -0.083 | inactive: 0.015 | inactive: -0.009 | inactive: -0.037 | inactive: 0.06 |
| FAM91A1 (UniProt Q658Y4) | inactive: 0.092 | inactive: -0.025 | inactive: -0.025 | inactive: 0.076 | inactive: -0.198 | inactive: -0.041 | inactive: 0 | inactive: 0.134 | – | inactive: 0.083 | inactive: 0.035 | inactive: 0.034 | inactive: -0.036 | inactive: -0.048 | active: 0.286 | inactive: -0.055 | inactive: 0.051 | inactive: 0.07 | inactive: 0.024 | inactive: 0.06 |

Given comma-delimited: part of the list above
Target,log2 fold change [1],log2 fold change [2],log2 fold change [3],log2 fold change [4],log2 fold change [5],log2 fold change [6],log2 fold change [7],log2 fold change [8],log2 fold change [9],log2 fold change [10],log2 fold change [11],log2 fold change [12],log2 fold change [13],log2 fold change [14],log2 fold change [15],log2 fold change [16],log2 fold change [17],log2 fold change [18],log2 fold change [19],log2 fold change [20]
FBXO42 (UniProt Q6P3S6),inactive: -0.103,inactive: -0.009,inactive: -0.108,inactive: -0.064,inactive: -0.093,inactive: -0.169,inactive: 0.011,inactive: -0.051,–,inactive: 0.086,inactive: -0.033,inactive: 0.164,inactive: -0.038,inactive: 0.04,inactive: -0.072,inactive: -0.086,inactive: 0.083,inactive: -0.025,inactive: 0.09,inactive: 0.015
FAM78A (UniProt Q5JUQ0),inactive: -0.039,inactive: 0.004,inactive: -0.064,inactive: -0.095,inactive: -0.135,inactive: -0.19,inactive: 0.064,inactive: 0.167,inactive: -0.025,inactive: 0.007,inactive: 0.008,inactive: -0.053,inactive: 0.002,inactive: -0.093,inactive: 0.043,inactive: -0.069,inactive: -0.063,–,inactive: 0.065,inactive: 0.042
FHAD1 isoform 3 (UniProt B1AJZ9),inactive: 0.092,inactive: 0.266,inactive: -0.092,inactive: 0.069,–,–,inactive: -0.029,inactive: -0.147,–,inactive: -0.138,–,inactive: 0.014,inactive: 0.185,inactive: 0.193,–,inactive: 0.023,inactive: -0.264,–,–,inactive: -0.015
FDPS (UniProt P14324),inactive: -0.127,inactive: -0.066,inactive: -0.096,inactive: 0.048,inactive: -0.319,active: -0.63,inactive: -0.028,inactive: 0.048,–,inactive: 0.083,inactive: -0.061,inactive: -0.068,inactive: 0.109,inactive: -0.077,inactive: 0.068,inactive: 0.034,inactive: -0.001,inactive: -0.005,inactive: 0.156,inactive: 0.081
